Source: publication PMC10788534
No constants are given. Whether binding was seen depends on the method and setting. In cells and extracts the contact can be indirect. These calls come from enrichment with a bait or labelling near it, and not all partners need be listed. One block for each molecule: values may come before it.

Sequences of proteins named here, by UniProt entry; tags and fusion partners are left off. Residues count along the entry.
UniProt Q01705, residues 1749-2293: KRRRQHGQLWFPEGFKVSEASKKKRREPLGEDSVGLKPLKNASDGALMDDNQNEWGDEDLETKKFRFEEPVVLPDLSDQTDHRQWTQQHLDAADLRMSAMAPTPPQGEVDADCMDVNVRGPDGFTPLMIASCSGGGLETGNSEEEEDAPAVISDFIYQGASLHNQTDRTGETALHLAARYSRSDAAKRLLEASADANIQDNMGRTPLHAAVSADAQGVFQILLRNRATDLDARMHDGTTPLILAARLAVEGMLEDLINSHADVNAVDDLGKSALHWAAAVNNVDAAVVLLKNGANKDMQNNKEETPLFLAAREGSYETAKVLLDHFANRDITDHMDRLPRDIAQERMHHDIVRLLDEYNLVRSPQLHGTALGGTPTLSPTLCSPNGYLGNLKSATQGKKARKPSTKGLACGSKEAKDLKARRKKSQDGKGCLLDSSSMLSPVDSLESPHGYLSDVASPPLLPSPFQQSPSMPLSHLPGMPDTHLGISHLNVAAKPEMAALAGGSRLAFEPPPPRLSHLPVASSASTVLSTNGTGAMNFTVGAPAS
UniProt Q8WXI9: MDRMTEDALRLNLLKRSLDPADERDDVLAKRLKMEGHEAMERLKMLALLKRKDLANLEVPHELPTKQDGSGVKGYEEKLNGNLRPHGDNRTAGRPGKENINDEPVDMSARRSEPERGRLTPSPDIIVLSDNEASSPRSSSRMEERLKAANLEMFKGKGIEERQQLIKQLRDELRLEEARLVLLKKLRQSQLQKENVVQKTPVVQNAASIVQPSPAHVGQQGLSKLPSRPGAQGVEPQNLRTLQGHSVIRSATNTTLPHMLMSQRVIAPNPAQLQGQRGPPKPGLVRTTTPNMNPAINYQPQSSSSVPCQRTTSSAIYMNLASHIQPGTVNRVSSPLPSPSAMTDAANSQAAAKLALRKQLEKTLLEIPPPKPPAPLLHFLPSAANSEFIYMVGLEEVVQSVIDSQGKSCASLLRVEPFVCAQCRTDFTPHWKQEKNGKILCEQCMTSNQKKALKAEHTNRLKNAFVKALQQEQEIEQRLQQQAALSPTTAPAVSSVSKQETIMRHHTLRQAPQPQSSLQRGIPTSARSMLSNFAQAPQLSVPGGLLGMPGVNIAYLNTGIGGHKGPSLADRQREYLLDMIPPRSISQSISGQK
UniProt Q8IZL2: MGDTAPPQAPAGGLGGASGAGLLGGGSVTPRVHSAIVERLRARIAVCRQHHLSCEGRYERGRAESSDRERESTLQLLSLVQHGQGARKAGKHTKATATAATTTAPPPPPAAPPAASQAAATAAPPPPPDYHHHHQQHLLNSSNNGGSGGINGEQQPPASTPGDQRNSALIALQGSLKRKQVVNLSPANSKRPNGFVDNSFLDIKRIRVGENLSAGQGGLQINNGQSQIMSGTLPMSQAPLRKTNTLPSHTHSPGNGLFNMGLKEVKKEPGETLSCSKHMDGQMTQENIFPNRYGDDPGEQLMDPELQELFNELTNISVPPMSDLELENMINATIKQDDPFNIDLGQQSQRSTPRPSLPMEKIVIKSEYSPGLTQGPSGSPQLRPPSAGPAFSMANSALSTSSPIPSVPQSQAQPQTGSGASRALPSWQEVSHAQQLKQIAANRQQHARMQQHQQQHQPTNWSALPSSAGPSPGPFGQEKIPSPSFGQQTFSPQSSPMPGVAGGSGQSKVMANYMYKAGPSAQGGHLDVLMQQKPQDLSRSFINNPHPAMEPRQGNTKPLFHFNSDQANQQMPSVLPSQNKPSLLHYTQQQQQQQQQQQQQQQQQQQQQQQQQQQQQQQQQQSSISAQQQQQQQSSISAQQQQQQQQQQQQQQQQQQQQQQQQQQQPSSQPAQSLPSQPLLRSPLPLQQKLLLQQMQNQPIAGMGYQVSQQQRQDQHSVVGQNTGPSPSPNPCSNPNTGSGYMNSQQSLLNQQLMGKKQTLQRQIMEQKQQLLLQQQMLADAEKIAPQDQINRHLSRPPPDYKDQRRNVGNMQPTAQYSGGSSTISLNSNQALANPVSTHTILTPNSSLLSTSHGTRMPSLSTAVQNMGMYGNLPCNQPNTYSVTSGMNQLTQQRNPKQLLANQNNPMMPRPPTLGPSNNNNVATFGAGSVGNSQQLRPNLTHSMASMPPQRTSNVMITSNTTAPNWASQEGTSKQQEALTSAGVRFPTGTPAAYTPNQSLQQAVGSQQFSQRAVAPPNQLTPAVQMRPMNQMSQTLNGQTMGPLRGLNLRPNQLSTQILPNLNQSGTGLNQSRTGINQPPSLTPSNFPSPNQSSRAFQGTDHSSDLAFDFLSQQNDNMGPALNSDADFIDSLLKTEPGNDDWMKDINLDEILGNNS
UniProt Q6P5D8: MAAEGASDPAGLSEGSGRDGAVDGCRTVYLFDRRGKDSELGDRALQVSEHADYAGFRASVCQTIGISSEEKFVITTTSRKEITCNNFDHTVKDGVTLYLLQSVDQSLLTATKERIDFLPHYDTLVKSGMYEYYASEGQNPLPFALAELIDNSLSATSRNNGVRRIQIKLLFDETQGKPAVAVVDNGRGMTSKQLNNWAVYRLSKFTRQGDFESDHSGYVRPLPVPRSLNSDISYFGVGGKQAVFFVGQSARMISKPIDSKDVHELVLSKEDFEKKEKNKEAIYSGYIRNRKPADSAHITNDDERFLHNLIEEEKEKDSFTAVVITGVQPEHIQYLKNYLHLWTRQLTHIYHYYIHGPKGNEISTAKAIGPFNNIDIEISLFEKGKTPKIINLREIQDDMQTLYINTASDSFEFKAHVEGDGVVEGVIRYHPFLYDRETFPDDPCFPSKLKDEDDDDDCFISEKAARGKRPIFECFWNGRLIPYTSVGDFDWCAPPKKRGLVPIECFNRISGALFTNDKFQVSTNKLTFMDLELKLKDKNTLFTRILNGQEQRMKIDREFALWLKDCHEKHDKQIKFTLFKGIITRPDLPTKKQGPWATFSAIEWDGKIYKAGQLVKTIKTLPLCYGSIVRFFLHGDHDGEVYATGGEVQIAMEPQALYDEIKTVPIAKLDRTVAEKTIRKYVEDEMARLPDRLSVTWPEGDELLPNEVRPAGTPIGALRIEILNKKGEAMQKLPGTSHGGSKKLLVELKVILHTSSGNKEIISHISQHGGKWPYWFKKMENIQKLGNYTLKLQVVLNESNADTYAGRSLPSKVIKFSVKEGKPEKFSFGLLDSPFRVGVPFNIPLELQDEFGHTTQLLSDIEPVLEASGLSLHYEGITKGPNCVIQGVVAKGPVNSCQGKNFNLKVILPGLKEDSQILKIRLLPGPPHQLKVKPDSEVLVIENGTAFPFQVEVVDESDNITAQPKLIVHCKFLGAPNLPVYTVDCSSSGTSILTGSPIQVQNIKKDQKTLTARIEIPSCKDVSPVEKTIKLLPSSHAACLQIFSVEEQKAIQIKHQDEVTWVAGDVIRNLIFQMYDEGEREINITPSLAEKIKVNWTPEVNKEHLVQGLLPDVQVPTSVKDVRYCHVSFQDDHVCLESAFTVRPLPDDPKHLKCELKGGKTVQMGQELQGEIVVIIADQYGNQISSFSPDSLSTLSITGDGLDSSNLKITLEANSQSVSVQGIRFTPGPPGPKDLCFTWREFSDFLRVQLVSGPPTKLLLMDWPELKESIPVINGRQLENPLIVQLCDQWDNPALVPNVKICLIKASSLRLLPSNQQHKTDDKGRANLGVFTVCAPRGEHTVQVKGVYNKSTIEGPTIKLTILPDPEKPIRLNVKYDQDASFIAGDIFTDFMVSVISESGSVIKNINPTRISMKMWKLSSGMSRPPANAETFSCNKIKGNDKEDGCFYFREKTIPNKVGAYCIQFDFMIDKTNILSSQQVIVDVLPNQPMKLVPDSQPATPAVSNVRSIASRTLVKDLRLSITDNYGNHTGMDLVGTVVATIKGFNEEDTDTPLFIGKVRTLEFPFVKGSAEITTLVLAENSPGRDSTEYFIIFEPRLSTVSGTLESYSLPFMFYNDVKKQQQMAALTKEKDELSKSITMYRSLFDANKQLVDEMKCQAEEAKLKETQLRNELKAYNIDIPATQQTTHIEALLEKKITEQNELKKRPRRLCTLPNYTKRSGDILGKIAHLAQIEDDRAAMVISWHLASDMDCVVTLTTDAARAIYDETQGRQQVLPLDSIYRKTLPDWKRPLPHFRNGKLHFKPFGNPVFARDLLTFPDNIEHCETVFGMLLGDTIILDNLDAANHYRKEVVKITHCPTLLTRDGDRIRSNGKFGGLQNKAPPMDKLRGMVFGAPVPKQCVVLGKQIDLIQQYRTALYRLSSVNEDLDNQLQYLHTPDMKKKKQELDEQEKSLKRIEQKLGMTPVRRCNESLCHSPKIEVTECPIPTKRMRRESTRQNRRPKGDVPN
UniProt Q8VHR5: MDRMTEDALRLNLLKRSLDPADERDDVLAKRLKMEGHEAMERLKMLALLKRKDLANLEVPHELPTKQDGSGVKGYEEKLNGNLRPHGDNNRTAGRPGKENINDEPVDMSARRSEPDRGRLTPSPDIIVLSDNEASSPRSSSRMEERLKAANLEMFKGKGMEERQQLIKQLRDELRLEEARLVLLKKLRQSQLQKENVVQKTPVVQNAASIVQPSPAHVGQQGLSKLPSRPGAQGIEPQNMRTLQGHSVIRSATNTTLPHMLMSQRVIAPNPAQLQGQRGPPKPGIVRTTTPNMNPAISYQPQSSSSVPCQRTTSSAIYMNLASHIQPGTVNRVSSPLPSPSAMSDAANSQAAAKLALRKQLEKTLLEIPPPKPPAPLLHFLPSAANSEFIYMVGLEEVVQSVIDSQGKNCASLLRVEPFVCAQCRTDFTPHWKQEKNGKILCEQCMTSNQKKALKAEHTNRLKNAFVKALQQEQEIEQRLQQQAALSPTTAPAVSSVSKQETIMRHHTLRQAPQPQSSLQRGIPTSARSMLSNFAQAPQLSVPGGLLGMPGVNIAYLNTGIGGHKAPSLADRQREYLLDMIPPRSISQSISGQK

How the values were obtained:
[1] = molecular target: BioID2-NICD (HEK293 stable line) (mouse) (UniProt Q01705); assay: proximity labelling; BioID: BioID2-NICD stably expressed in HEK293 cells, 1 μg/ml doxycycline 24 h then 50 μM biotin 18 h; lysis in 8 M urea; streptavidin capture; LC-MS/MS; biological triplicate; hits in at least two of three samples and at least 3-fold over BioID2-only
[2] = molecular target: BioID2-NICD (NIH3T3 stable line) (mouse) (UniProt Q01705); assay: proximity labelling; BioID: BioID2-NICD stably expressed in NIH3T3 cells, 1 μg/ml doxycycline 24 h then 50 μM biotin 18 h; lysis in 8 M urea; streptavidin capture; LC-MS/MS; biological triplicate; hits in at least two of three samples and at least 3-fold over BioID2-only
[3] = molecular target: BioID2-NICD (HEK293 or NIH3T3 stable line; the text does not tell which) (mouse) (UniProt Q01705); assay: proximity labelling; BioID as in HEK293 and NIH3T3 stable lines; results told for the study as a whole (core-proximal proteins found in at least two of HEK293, 3T3 and BioGRID, and others) without naming the cell line

Molecule: GATAD2B, human (from UniProt Q8WXI9 1-593)
binding [1]: binds

Molecule: MAML2, human (from UniProt Q8IZL2 1-1156)
binding [1]: binds

Molecule: SMCHD1, mouse (from UniProt Q6P5D8 1-2007)
binding [2]: binds

Continued, values first:

binding [2]: binds
Molecule: GATAD2B, mouse (from UniProt Q8VHR5 1-594)

binding [3]: binds
B1: C11orf30 (protein, UniProt Q7Z589 1-1322)
chain: MPVVWPTLLDLSRDECKRILRKLELEAYAGVISALRAQGDLTKEKKDLLGELSKVLSISTERHRAEVRRAVNDERLTTIAHNMSGPNSSSEWSIEGRRLVPLMPRLVPQTAFTVTANAVANAAIQHNASLPVPAETGSKEVVCYSYTSTTSTPTSTPVPSGSIATVKSPRPASPASNVVVLPSGSTVYVKSVSCSDEDEKPRKRRRTNSSSSSPVVLKEVPKAVVPVSKTITVPVSGSPKMSNIMQSIANSLPPHMSPVKITFTKPSTQTTNTTTQKVIIVTTSPSSTFVPNILSKSHNYAAVTKLVPTSVIASTTQKPPVVITASQSSLVSNSSSGSSSSTPSPIPNTVAVTAVVSSTPSVVMSTVAQGVSTSAIKMASTRLPSPKSLVSAPTQILAQFPKQHQQSPKQQLYQVQQQTQQQVAQPSPVSHQQQPQQSPLPPGIKPTIQIKQESGVKIITQQVQPSKILPKPVTATLPTSSNSPIMVVSSNGAIMTTKLVTTPTGTQATYTRPTVSPSIGRMAATPGAATYVKTTSGSIITVVPKSLATLGGKIISSNIVSGTTTKITTIPMTSKPNVIVVQKTTGKGTTIQGLPGKNVVTTLLNAGGEKTIQTVPTGAKPAILTATRPITKMIVTQPKGIGSTVQPAAKIIPTKIVYGQQGKTQVLIKPKPVTFQATVVSEQTRQLVTETLQQASRVAEAGNSSIQEGKEEPQNYTDSSSSSTESSQSSQDSQPVVHVIASRRQDWSEHEIAMETSPTIIYQDVSSESQSATSTIKALLELQQTTVKEKLESKPRQPTIDLSQMAVPIQMTQEKRHSPESPSIAVVESELVAEYITTERTDEGTEVAFPLLVSHRSQPQQPSQPQRTLLQHVAQSQTATQTSVVVKSIPASSPGAITHIMQQALSSHTAFTKHSEELGTEEGEVEEMDTLDPQTGLFYRSALTQSQSAKQQKLSQPPLEQTQLQVKTLQCFQTKQKQTIHLQADQLQHKLPQMPQLSIRHQKLTPLQQEQAQPKPDVQHTQHPMVAKDRQLPTLMAQPPQTVVQVLAVKTTQQLPKLQQAPNQPKIYVQPQTPQSQMSLPASSEKQTASQVEQPIITQGSSVTKITFEGRQPPTVTKITGGSSVPKLTSPVTSISPIQASEKTAVSDILKMSLMEAQIDTNVEHMIVDPPKKALATSMLTGEAGSLPSTHMVVAGMANSTPQQQKCRESCSSPSTVGSSLTTRKIDPPAVPATGQFMRIQNVGQKKAEESPAEIIIQAIPQYAIPCHSSSNVVVEPSGLLELNNFTSQQLDDEETAMEQDIDSSTEDGTEPSPSQSSAERS

binding [3]: binds
B2: PPIL4 (protein, UniProt Q8WUA2 1-492)
chain: MAVLLETTLGDVVIDLYTEERPRACLNFLKLCKIKYYNYCLIHNVQRDFIIQTGDPTGTGRGGESIFGQLYGDQASFFEAEKVPRIKHKKKGTVSMVNNGSDQHGSQFLITTGENLDYLDGVHTVFGEVTEGMDIIKKINETFVDKDFVPYQDIRINHTVILDDPFDDPPDLLIPDRSPEPTREQLDSGRIGADEEIDDFKGRSAEEVEEIKAEKEAKTQAILLEMVGDLPDADIKPPENVLFVCKLNPVTTDEDLEIIFSRFGPIRSCEVIRDWKTGESLCYAFIEFEKEEDCEKAFFKMDNVLIDDRRIHVDFSQSVAKVKWKGKGGKYTKSDFKEYEKEQDKPPNLVLKDKVKPKQDTKYDLILDEQAEDSKSSHSHTSKKHKKKTHHCSEEKEDEDYMPIKNTNQDIYREMGFGHYEEEESCWEKQKSEKRDRTQNRSRSRSRERDGHYSNSHKSKYQTDLYERERSKKRDRSRSPKKSKDKEKSKYR

binding [2]: binds
B3: SNW1, mouse (protein, UniProt Q9CSN1 1-536)
chain: MALTSFLPAPTQLSQDQLEAEERARSQRSLQTSLVSSRREPPPYGYRKGWIPRLLEDFGDGGAFPEIHVAQYPLDMGRKKKMSNALAIQVDPEGKIKYDAIARQGQSKDKVIYSKYTDLVPKEVMNADDPDLQRPDEEAIKEITEKTRVALEKSVSQKVAAAMPVRAADKLAPAQYIRYTPSQQGVAFNSGAKQRVIRMVEMQKEPMEPPRFKINKKIPRGPPSPPAPVMHSPSRKMTVKEQQEWKIPPCISNWKNAKGYTIPIDKRLAADGRGLQTVHINENFAKLAEALYIADRKAREAVEMRAQVERKMAQKEKEKHEEKLREMAQKARERRAGIKTHVEKEDGEARERDEIRHDRRKERQHDRNLSRAAPDKRSKLQRNENRDISEVIALGVPNPRTSNEVQYDQRLFNQSKGMDSGFAGGEDEIYNVYDQAWRGGKDMAQSIYRPSKNLDKDMYGDDLEARIKTNRFVPDKEFSGSDRKQRGREGPVQFEEDPFGLDKFLEEAKQHGGSKRPSDSSRPKEHEHEGKKRRKE
